Results reported in article doi:10.1101/2025.09.02.673855, “Bacteriophage T4 gene 32 protein: Insights into its Interaction with ssDNA, binding cooperativity, and conformational change” (bioRxiv, 2025).
These are yes or no findings as the source states them, for the method shown. Some binding calls cover weakened binding; strength is not graded here.

Tests used:
[1] = target: T1, gp32 core domain (*III), residues 22-253 (bacteriophage T4) (UniProt P03695); test: other fluorescence titration; as the titration of d(εA)11T with the 1:1 mixture of *III and 1-227, at 0.05 M NaCl; data not shown; both purified
T1 sequence: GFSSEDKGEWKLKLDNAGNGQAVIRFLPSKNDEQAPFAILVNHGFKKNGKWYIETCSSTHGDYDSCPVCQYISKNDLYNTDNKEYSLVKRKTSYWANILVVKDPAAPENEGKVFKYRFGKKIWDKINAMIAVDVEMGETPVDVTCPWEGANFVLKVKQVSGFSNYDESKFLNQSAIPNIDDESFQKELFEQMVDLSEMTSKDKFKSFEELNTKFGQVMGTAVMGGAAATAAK

[2] = target: T1, gp32 core domain (*III), residues 22-253 (bacteriophage T4); test: other fluorescence titration; *III, 1-227 or a 1:1 mixture of both added to the 12-residue oligonucleotide d(εA)11T, increase in oligonucleotide fluorescence; 0.01 M NaCl, 0.02 M HEPES pH 7.68, 1x10^-4 M EDTA/Na+; the two proteins meet on the oligonucleotide; both purified

With “gp32 1-227 truncate (from UniProt P03695 1-227) (domain or fragment)” the binding [1] was “binds” and the binding [2] was “binds”.
